PMC11674933
Results are given in words; binding and its absence hold for the method and conditions named. Some entries that bind do so weakly or less than the wild type. Tags and fused reporters may be left off the sequences shown.

By UniProt entry, the sequences of proteins in these tests, tags left out.
UniProt Q9P126: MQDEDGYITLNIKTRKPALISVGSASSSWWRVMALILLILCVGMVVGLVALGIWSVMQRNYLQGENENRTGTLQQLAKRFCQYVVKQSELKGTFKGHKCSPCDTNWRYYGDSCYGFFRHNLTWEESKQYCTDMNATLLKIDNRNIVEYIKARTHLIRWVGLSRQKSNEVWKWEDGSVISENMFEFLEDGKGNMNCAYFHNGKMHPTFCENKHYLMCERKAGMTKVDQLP

Target: CLEC2^2E3 overexpressed on Ramos-Blue cells (human) (UniProt Q9P126)
Assay: flow cytometry on cells; soluble CA9-His on CLEC2^2E3 overexpressing or WT Ramos-Blue cells, stained with anti-CA9 (M75); with or without soluble PDPN; only the binder purified

binding: binds
B1: sPDPN^23−131-His (domain or fragment, UniProt Q86YL7 23-131)
chain: ASTGQPEDDTETTGLEGGVAMPGAEDDVVTPGTSEDRYKSGLTTLVATSVNSVTGIRIEDLPTSESTVHAQEQSPSATASNVATSHSTEKVDGDTQTTVEKDGLSTVTL
